Results published in US8445440B2, “Dimeric IAP inhibitors” (Novartis AG, priority 2010, dated 2013).
Some of these results come from one statement about several compounds together.

System: xenograft tumors
Experiment: In vivo combination study in mice with xenograft tumors
Conditions: 2-3 weeks, compared to untreated animals

| SMILES | tumor growth control (Cohort A: mice, 3 mg/kg, 1× per week) [%] | tumor growth control (Cohort B: mice, 12 mg/kg, 3× per week) [%] |
| --- | --- | --- |
| CN[C@@H](C)C(=O)N[C@@H](CCCCNC(=O)c1ccc(-c2ccc(C(=O)NCCCC[C@H](NC(=O)[C@H](C)NC)C(=O)N3CCC[C@H]3c3cncc(C(=O)c4ccc(F)cc4)c3)cc2)cc1)C(=O)N1CCC[C@H]1c1cncc(C(=O)c2ccc(F)cc2)c1 [Example 1J, Biphenyl-4,4′-dicarboxylic acid bis-{[(S)-6-{(S)-2-[5-(4-fluorobenzoyl)-pyridin-3-yl]-pyrrolidin-1-yl}-5-((S)-2-methylamino-propionylamino)-6-oxo-hexyl]-amide}] | < 50 | – |
| CC(=O)O[C@H]1C(=O)[C@@]2(C)[C@H]([C@H](OC(=O)c3ccccc3)[C@]3(O)C[C@H](OC(=O)[C@H](O)[C@@H](NC(=O)c4ccccc4)c4ccccc4)C(C)=C1C3(C)C)[C@]1(OC(C)=O)CO[C@@H]1C[C@@H]2O [Paclitaxel, paclitaxel, reference compound] | – | < 50 |
